Results on one sequence are retold here after paper PMC12270673.

For at least one entry, the source does not settle the construct or the ends of the probe. At least one result comes from cells or an extract, where the contact may be indirect.

The test system of the data set is p65 (NF-κB subunit) + BRD4. In words: EMSA with antibody interference (nuclear extract). The note with it: IL-1β 5 U/ml 30 min, shifted band diminished by anti-p65 or anti-BRD4 (antibodies used separately); 4 μg nuclear lysate, 50 fmol probe; antibody preincubation 20 min at 4 °C, then probe 20 min; 4.5% native gel with 50 mM Tris pH 7.5, 0.38 M glycine, 2 mM EDTA, 0.5% TBE; protein in an extract.

Consider “AGTTGAGGGGACTTTCCCAGGC (double strand) [NF-κB consensus oligonucleotide (LI-COR)]”, for which the binding result is on record as “binds”.
